# Test results from PubChem BioAssay AID488837 (National Center for Advancing Translational Sciences (NCATS), 2010).
# By UniProt entry, the sequences of proteins in these tests, tags left out. Where a name states a change or a piece, a line headed by the entry shows the natural chain unless it says otherwise.
# UniProt O00167: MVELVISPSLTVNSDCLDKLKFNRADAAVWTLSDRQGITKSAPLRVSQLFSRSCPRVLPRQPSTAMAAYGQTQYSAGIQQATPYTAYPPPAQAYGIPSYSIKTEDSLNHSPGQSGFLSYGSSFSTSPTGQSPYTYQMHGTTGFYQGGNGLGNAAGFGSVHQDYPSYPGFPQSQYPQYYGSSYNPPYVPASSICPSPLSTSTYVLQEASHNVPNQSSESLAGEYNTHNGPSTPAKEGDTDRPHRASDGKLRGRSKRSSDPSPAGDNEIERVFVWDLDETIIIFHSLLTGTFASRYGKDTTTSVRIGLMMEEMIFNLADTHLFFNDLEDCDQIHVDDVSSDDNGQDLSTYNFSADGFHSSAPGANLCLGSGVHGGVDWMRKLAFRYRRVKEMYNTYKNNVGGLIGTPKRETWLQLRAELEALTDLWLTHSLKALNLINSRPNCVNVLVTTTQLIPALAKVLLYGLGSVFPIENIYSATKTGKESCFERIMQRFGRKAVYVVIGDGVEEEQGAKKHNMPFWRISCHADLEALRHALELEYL
# Hit rate of the full screen: of about 330,000 compounds, about 20 (0.006%) were called active. Inconclusive results, whose numbers are uncertain, are shown with a selection of clear calls. Calls come from the whole dose curve; as a rule, active = well fitted inhibition curve with a large enough effect; inconclusive = small, poorly fitted or top-dose-only effect, or effect the other way; inactive = flat fitted curve, though single readings scatter. A potency beside an inconclusive call is a rough fit, not a confirmed value.
# Molecular target: Protein phosphatase EYA2 (Homo sapiens) (UniProt O00167)
# Experiment: qHTS Assay for Inhibitors of the Phosphatase Activity of Eya2
# Settings: recombinant Eya2, OMFP fluorescence dephosphorylation (OMFP is methylfluorescein phosphate); activity, negative = inhibition: at 76.9 µM (top of the series) unless noted
# Summary of the method: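 Eya2 (0.2 uM) preincubated 10 min at ambient with compound, then OMFP substrate added at 50 uM; 10 min reaction in 50 mM HEPES pH 7.5, 50 mM NaCl, 5 uM MgCl2, 0.05% BSA, 1 mM DTT. Fluorescence read at Ex 485/Em 525 nm.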
# % is set by controls: 0 for no effect and ±100 for the full control effect; potency is the fitted concentration of half-maximal effect.
SMILES,Potency,"activity, negative = inhibition"
Cc1c(Cl)c([N+](=O)[O-])nn1CC(=O)Nc1c(C)n(C)n(-c2ccccc2)c1=O,"inconclusive: 22.4 µM [inhibitor, single point]",–
CCOC(=O)c1ccc(-n2c(CCC(=O)O)ccc2-c2ccc(F)cc2)cc1,"inconclusive: 100 µM [inhibitor, single point]",–
O=C(Nc1cccnc1Cl)c1cc(-c2ccc(O)cc2)on1,"inconclusive: 14.1 µM [inhibitor, single point]",–
COc1cc2c(cc1OC)CN(c1nc(-c3cccnc3)nc3ccccc13)CC2,"inconclusive: 10 µM [inhibitor, partial curve, poor fit]",–
CCOC(CCNC(=O)c1cn(CC(C)C)c(=O)c2c1c1ccccc1n2C)OCC,–,inactive: 7.96%
O=C1NN(c2ccc(Cl)cc2)C(=O)/C1=C\c1ccc(-c2cccc(C(=O)O)c2)o1,–,inactive: 11.8%
O=C(COC(=O)/C=C/c1ccccc1Cl)NC(=O)NCc1ccccc1,–,inactive: -1.47%
O=c1c(-c2nc3ccccc3s2)cccn1Cc1ccc(Cl)cc1,"inconclusive: 22.4 µM [inhibitor, single point]",–
CN(C)c1cccc(C(=O)OCC(=O)N(Cc2ccccc2)C2CCS(=O)(=O)C2)c1 (centres undefined),"inconclusive: 31.6 µM [inhibitor, single point]",–
COc1ccc(N2C(=O)c3ccc(C(=O)Nc4ccc(NC(C)=O)cc4)cc3C2=O)cc1,"inconclusive: 112 µM [inhibitor, partial curve, poor fit]",–
c1csc(CNCc2ccncc2)c1,–,inactive: 5.87%
CCCn1c(SCC(=O)O)nc2ccccc21,–,inactive: -7.13%
O=C(Cc1ccc([N+](=O)[O-])cc1)NCc1cccnc1,–,inactive: 3.43%
CCCCCCCC(=O)OCC(=O)[C@@]1(O)CC[C@H]2[C@@H]3CCC4=CC(=O)CC[C@]4(C)[C@H]3[C@@H](O)C[C@@]21C,"inconclusive: 562 µM [inhibitor, single point]",–
CCCSc1nnc(-c2cnn(-c3ccccc3)c2-n2cccc2)n1C,–,inactive: -16.1%
C[n+]1ccc(/C=C/c2c[nH]c3ccc(F)cc23)cc1,"inconclusive: 63.1 µM [activator, partial curve, poor fit]",–
CCOc1ccc(/C(O)=C2/C(=O)C(=O)N(c3ncccn3)C2c2ccc(Cl)cc2)cc1 (centres undefined),"inconclusive: 28.2 µM [inhibitor, partial curve]",–
CCCCOc1ccc(C(=O)N/C(=C\c2cccc([N+](=O)[O-])c2)C(=O)OC(C)C)cc1,"inconclusive: 28.2 µM [inhibitor, partial curve, poor fit]",–
COc1ccc(Cl)cc1C(=O)NNC(=S)NC1CCCCC1,"inconclusive: 28.2 µM [inhibitor, single point]",–

# Five consecutive records from above, quoted:
SMILES,Potency,"activity, negative = inhibition"
O=c1c(-c2nc3ccccc3s2)cccn1Cc1ccc(Cl)cc1,"inconclusive: 22.4 µM [inhibitor, single point]",–
CN(C)c1cccc(C(=O)OCC(=O)N(Cc2ccccc2)C2CCS(=O)(=O)C2)c1 (centres undefined),"inconclusive: 31.6 µM [inhibitor, single point]",–
COc1ccc(N2C(=O)c3ccc(C(=O)Nc4ccc(NC(C)=O)cc4)cc3C2=O)cc1,"inconclusive: 112 µM [inhibitor, partial curve, poor fit]",–
c1csc(CNCc2ccncc2)c1,–,inactive: 5.87%
CCCn1c(SCC(=O)O)nc2ccccc21,–,inactive: -7.13%
